# Laboratory results: patent publication US20100178296A1
# Protein sequences, listed by entry. Tags and fused reporters are not part of them. Residues count along the entry.
# UniProt O54885, residues 22-114: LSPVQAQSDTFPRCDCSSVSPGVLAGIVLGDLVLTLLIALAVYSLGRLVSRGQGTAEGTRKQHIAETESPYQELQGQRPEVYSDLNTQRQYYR
# No constants are given. Whether binding was seen depends on the method and setting. Binding seen in cells or lysates may run through a third protein. Some entries that bind do so weakly or less than the wild type.
# Target: T1, cynomolgus CD200RLa expressed on mouse mast cells or on Ba/F3 cells with human DAP12 (cynomolgus monkey)
# T1 sequence: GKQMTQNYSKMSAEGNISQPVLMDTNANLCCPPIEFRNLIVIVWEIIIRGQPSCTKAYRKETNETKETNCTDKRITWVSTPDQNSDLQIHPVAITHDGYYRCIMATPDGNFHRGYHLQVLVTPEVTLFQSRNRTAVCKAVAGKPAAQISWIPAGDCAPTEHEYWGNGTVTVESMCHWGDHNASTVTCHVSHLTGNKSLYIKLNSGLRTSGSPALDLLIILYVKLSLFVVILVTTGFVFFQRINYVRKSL
# Assay: co-immunoprecipitation with cynomolgus CD200RLa by DX182 from mouse mast cell lysate (1% digitonin), Western blot with rabbit anti-mouse DAP12
substance,measurement,value
"mouse DAP12, endogenous in mouse mast cells (from UniProt O54885 22-114)",binding,binds
